Measurements from US8137977B2, “Lipidomic approaches to determining drug response phenotypes in cardiovascular disease” (Children's Hospital & Research Center at Oakland, priority 2007, dated 2012).
Entries after “also recorded” stand apart in the source; their conditions may differ. At least one structure is not confirmed: it was looked up by name or label, or the drawing left a doubt.

Tests used:
[1] = Lipid profile changes (lipid classes and fatty acid composition) following simvastatin treatment, high vs low responders, PARC study; assay type: in vivo, human; settings: 40 mg, 6 weeks
Protocol: We evaluated lipid profiles of 48 subjects selected from the Pharmacogenetics and Risk of Cardiovascular Disease (PARC) study. Subjects were selected from the larger study population of 944 participants (335 African-Americans and 609 whites), with a baseline total serum cholesterol level of 160 to 400 mg/dl. Participants were followed for a total of 6 weeks on simvastatin therapy (40 mg at bedtime). Twenty-four subjects drawn from the top 10% of responders and 24 age-, gender-, and race-matched subjects from the bottom 10% of responders. Response was defined as percent change in LDL cholesterol from baseline to end of treatment. Samples used in this study were collected at baseline and at 6 weeks of therapy.
Data Reporting. Lipids measured included, butyrobetaine, L-carnitine, cholesterol, cholesterol esters (CE), diglycerides (DG), free cholesterol (FC), free fatty acids (FA), lysophosphatidylcholine (LY), phosphatidylcholine (PC), phosphatidylethanolamine (PE) and triglycerides (TG). For CE, DG, FA, LY, PC, PE and TG lipid classes the following fatty acid components were quantified as a proportion of total fatty acids within the lipid class: 14:0, 15:0, 16:0, 18:0, 20:0, 22:0, 24:0, 14:1n5, 16:1n7, 18:1n7, 18:1n9, 20:1n9, 20:3n9, 22:1n9, 24:1n9, 18:2n6, 18:3n6, 20:2n6, 20:3n6, 20:4n6, 22:2n6, 22:4n6, 22:5n6, 18:3n3, 18:4n3, 20:3n3, 20:4n3, 20:5n3, 22:5n3, 22:6n3, 24:6n3, plasmalogen derivatives of 16:0, 18:0, 18:1n7 and 18:1n9, t16:1n7 t18:1n9 t18:2n6. The term “LC” indicates the value shown is the total concentration of the lipid class expressed as nMoles per gram of serum or plasma. Thus, the abbreviation PC18:2n6 indicates the percentage of plasma or serum phosphatidylcholine comprised of linoleic acid (18:2n6), and the term TGLC indicates the absolute amount of triglyceride present in plasma or serum.
Statistical Methods. Before undertaking analysis, the data was cleaned by outlier removal and removal of uninformative metabolites. Outliers were identifies as those observation more than three standard deviations from the mean. Metabolites were determined to be uninformative if over ⅔rds of the observations were below the limit of detection and the pattern of observations falling below this limit was not related to the outcome.
Results of t-tests were used in order to reduce the number of metabolites being modeled.
A simple one-way ANOVA was used to evaluate the difference in lipid changes between high and low responders. From this analysis, contrasts were calculated for the comparison of low to high responders. In addition, an ANCOVA model was used to evaluate the difference in response adjusting for baseline concentrations of the metabolite and the time the samples were run. The outcome was change from baseline to post-treatment, baseline concentration was the covariate, response (high=1, low=0) and group (first=0, second=1) were included as factors, and an interaction term between baseline and response was included.
The column labeled “estimate” is the difference between the change from pre to post in high and low responders (high minus low). The standard error, t-statistic, p-value, and 95% confidence bounds of this estimate are also included (Lower.CI and Upper.CI).

[2] = Response of sterols and bile acids to simvastatin treatment, ANCOVA and paired t-tests; assay type: in vivo, human
[3] = 40 mg, 6 weeks, plasma or serum
[4] = high responders, 40 mg, 6 weeks, plasma or serum
[5] = low responders, 40 mg, 6 weeks, plasma or serum

CCC(C)(C)C(=O)O[C@H]1C[C@@H](C)C=C2C=C[C@H](C)[C@H](CC[C@@H]3C[C@@H](O)CC(=O)O3)[C@H]21 [simvastatin]
DGSFA, effect of treatment in high relative to low responders ([1]; serum, master list): Increased in high responders relative to low responders | DGn6, effect of treatment in high relative to low responders ([1]; serum, master list): Decreased in high responders relative to low responders | Change of triglycerides following treatment ([1]; both high and low responders): dropped | Change of PC 20:3n9 with treatment ([1]; high responders): slight decrease | Change of free fatty acid 20:1n9 with treatment ([1]; high responders): increased | Change of free fatty acid 22:2n6 with treatment ([1]; high responders): decreased | Change of lysophosphatidylcholine 18:0 with treatment ([1]; high responders): decrease | Change of lysophosphatidylcholine 18:3n6 with treatment ([1]; high responders): increased | Change of phosphatidylethanolamine 14:1n5 with treatment ([1]; high responders): tended to have increased concentrations | Change of phosphatidylethanolamine 18:0 with treatment ([1]; high responders): large decreases | Change of phosphatidylethanolamine 18:2n6 with treatment ([1]; high responders): large decreases | Change of phosphatidylethanolamine 20:3n6 with treatment ([1]; high responders): large decreases | Change of triglyceride 18:4n3 with treatment ([1]; high responders): did not change significantly | Change of PC 20:3n9 with treatment ([1]; low responders): significant increase | Change of free fatty acid 20:1n9 with treatment ([1]; low responders): no change | Change of free fatty acid 22:2n6 with treatment ([1]; low responders): no change | Change of lysophosphatidylcholine 18:0 with treatment ([1]; low responders): no significant change | Change of lysophosphatidylcholine 18:3n6 with treatment ([1]; low responders): decreased | Change of phosphatidylethanolamine 18:0 with treatment ([1]; low responders): no significant change | Change of phosphatidylethanolamine 18:2n6 with treatment ([1]; low responders): no significant change | Change of phosphatidylethanolamine 20:3n6 with treatment ([1]; low responders): no significant change | Change of triglyceride 18:4n3 with treatment ([1]; low responders): increased | Change of Lathosterol pre- to post-treatment [2, 3]: extremely noisy and the direction of the change is questionable | Change of bile acids, oxysterols and phytosterols pre- to post-treatment [2, 3]: did not change in a consistent or meaningful manner | Change of lathosterol post-treatment, good responders ([2]; further studies): decreases more substantially | High-Response: change of 7-Dehydrocholesterol pre- to post-treatment [2, 4]: significantly reduced; also recorded: Decreased | High-Response: change of Cholesterol pre- to post-treatment [2, 4]: significantly reduced; also recorded: Decreased | High-Response: change of Coprostanol pre- to post-treatment [2, 4]: significantly reduced; also recorded: Decreased | High-Response: change of Desmosterol pre- to post-treatment [2, 4]: significantly reduced; also recorded: Decreased | High-Response: change of Lanosterol pre- to post-treatment [2, 4]: significantly depleted by a similar magnitude; also recorded: Decreased | Low-Response: change of 7-Dehydrocholesterol pre- to post-treatment [2, 5]: Unchanged | Low-Response: change of Cholesterol pre- to post-treatment [2, 5]: Unchanged | Low-Response: change of Coprostanol pre- to post-treatment [2, 5]: Unchanged | Low-Response: change of Desmosterol pre- to post-treatment [2, 5]: Unchanged | Low-Response: change of Lanosterol pre- to post-treatment [2, 5]: significantly depleted by a similar magnitude; also recorded: Decreased
